Laboratory results reported in patent publication US20210087231A1 (UNIVERSITY OF MARYLAND BALTIMORE, published 2021).
Results are given in words; binding and its absence hold for the method and conditions named.

Target: TLR2-Cer
Test: FRET-FLIM in HeLa cells expressing the Cer fusion, Cy3-peptide 1 h

Q: RQIKIWFQNRRMKWKKALRLCLEERD (Cy3 label at the peptide N-terminus) [Cy3-9R34-ΔN] was tested. Which binding did it give?
A: Its binding is “no binding (tested: 40 µM)”.
